The test system of test [1] is Ba/F3-FLT3-D835Y cells. The test is described as follows: cells. The settings on record: read-out: IC50, inhibition of proliferation. The procedure: (§1) To search for FLT3-targeted compounds, the applicant screened the inhibitory effects of several compounds on two different kinds of assays. • Tyrosine protein kinase assays with purified GST-Flt-3 were carried in a final volume of 30 μL containing 200-1800 ng of enzyme protein. The activity was assayed in the presence or absence of inhibitors, by measuring the incorporation of ^33P from [γ^33P] ATP into appropriate substrates. […] Cell lines expressing two different forms of mutated, activated FLT3 are used: Ba/F3-FLT3-ITD cells expressing a FLT3 mutant with an “Internal Tandem Duplication” (ITD) within the juxtamembrane domain of the receptor. Ba/F3-FLT3-D835Y cells expressing an FLT3 receptor containing a mutation converting […] at position 835 to Tyrosine.
(§2) A cell based assay is utilised to identify inhibitors of mutant FLT3 tyrosine kinase receptors.
(§3) The cell lines used for the initial screening are sublines of Ba/F3 cells that are engineered to express mutant or over-express wild-type (non-mutated) FLT3 following infection with a retrovirus expressing appropriate FLT3 cDNAs. The parent cell line, Ba/F3 is dependent on interleukin-3 for proliferation, and when deprived of IL-3, the cells rapidly cease proliferation and die. The retrovirus expresses FLT3 from the retrovirual LTR and the neo gene from an IRES site.

For test [2], the system named is Ba/F3-FLT3-ITD cells. The test is described as follows: cells. The procedure:
as §1, §2, §3

The subject of test [3] is untransformed Ba/F3 cells. As for the experimental part:
as §1, §2, §3

The structures appear in SMILES notation. Where only a bound is given, the exact number is not on record here.

With `CO[C@@H]1[C@H](N(C)C(=O)c2ccccc2)C[C@H]2O[C@]1(C)n1c3ccccc3c3c4c(c5c6ccccc6n2c5c31)C(=O)NC4` [MIDOSTAURIN, N-[(9S,10R,11R,13R)-2,3,10,11,12,13-hexahydro-10-methoxy-9-methyl-1-oxo-9,13-epoxy-1H,9H-diindolo[1,2,3-gh:3′,2′,1′-Im]pyrrolo[3,4-j][1,7]benzodiazonin-11-yl]-N-methylbenzamide], the IC50 in test [1] was < 0.01 µM; in test [2] (Ba/F3 FLT3-ITD, read-out: IC50, inhibition of proliferation) it was < 0.01 µM. Also, the “reversal of growth inhibitory effects by IL-3” value in test [2] (Ba/F3-FLT3-ITD cells, addition of high concentrations of IL-3) is reported as “could be reversed”. Further, in test [3], the “did not inhibit growth at concentrations of up to” value was > 500 nM.
